These are yes or no findings as the source states them, for the method shown.
Molecular target: T1, ATP synthase α-subunit (endothelial cell membrane proteins) (human (endogenous in HUVEC)), P25705
T1 chain: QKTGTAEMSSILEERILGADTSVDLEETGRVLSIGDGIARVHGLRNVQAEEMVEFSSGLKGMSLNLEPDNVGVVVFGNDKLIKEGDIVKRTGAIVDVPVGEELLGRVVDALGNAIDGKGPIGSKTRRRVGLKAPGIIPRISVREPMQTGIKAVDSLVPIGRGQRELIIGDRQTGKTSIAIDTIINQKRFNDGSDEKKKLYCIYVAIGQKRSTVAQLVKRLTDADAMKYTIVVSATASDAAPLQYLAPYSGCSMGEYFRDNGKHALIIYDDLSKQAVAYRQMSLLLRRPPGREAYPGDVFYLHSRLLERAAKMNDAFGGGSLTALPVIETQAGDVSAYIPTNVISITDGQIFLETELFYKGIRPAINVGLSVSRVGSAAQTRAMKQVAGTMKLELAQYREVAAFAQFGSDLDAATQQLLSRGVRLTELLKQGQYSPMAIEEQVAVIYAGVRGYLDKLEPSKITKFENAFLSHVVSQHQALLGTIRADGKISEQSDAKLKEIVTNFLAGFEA
Assay: far-Western, overlay or dot blot; HUVEC membrane-enriched proteins resolved on bidimensional gels, blotted onto PVDF, incubated with 2 µg/ml recombinant hsp60, probed with anti-hsp60 mAb (clone LK-1); additional spots cut from a Coomassie-stained gel and identified by MALDI mass spectrometry; only the binder purified
Details: remark: other sources report otherwise

B1: recombinant hsp60, P10809 27-573 (protein)
chain: AKDVKFGADARALMLQGVDLLADAVAVTMGPKGRTVIIEQSWGSPKVTKDGVTVAKSIDLKDKYKNIGAKLVQDVANNTNEEAGDGTTTATVLARSIAKEGFEKISKGANPVEIRRGVMLAVDAVIAELKKQSKPVTTPEEIAQVATISANGDKEIGNIISDAMKKVGRKGVITVKDGKTLNDELEIIEGMKFDRGYISPYFINTSKGQKCEFQDAYVLLSEKKISSIQSIVPALEIANAHRKPLVIIAEDVDGEALSTLVLNRLKVGLQVVAVKAPGFGDNRKNQLKDMAIATGGAVFGEEGLTLNLEDVQPHDLGKVGEVIVTKDDAMLLKGKGDKAQIEKRIQEIIEQLDVTTSEYEKEKLNERLAKLSDGVAVLKVGGTSDVEVNEKKDRVTDALNATRAAVEEGIVLGGGCALLRCIPALDSLTPANEDQKIGIEIIKRTLKIPAMTIAKNAGVEGSLIVEKIMQSSSEVGYDAMAGDFVNMVEKGIIDPTKVVRTALLDAAGVASLLTTAEVVVTEIPKEEKDPGMGAMGGMGGGMGGGMF
With B1 the binding was “no binding”.
